# Experiment: Ability to be analyzed for crystal structure: organic compound fixed in metal complex crystal 1, X-ray crystallography
# Settings: host metal complex crystal 1; 50°C, 17 hours
row,Compound,Determination of the entire molecular structure by X-ray diffraction images
1,Fc1cccc2ccccc12 [1-fluoronaphthalene],the entire molecular structures were determined by X-ray diffraction images
2,O=Cc1ccc2c3ccccc3c3ccccc3c2c1 [2-triphenylenecarboxaldehyde],the entire molecular structures were determined by X-ray diffraction images
